Source: patent US9962341B2, “Active pharmaceutical ingredient (API) comprising cannabinoids for use in the treatment of cancer” (GW Pharma Limited, priority 2014, dated 2018)

System: BT474
Test: Cell viability (CellTiter-Blue, 72 h), phytocannabinoids alone and in combination, BT474 breast cancer cells
Format: cell-based
Settings: BT474, 1% FBS
Procedure: The cell lines tested in this Example were as follows. Breast cancer: MDA-MB-231; SK-BR3; and BT474. Liver cancer: HepG2.
The phytocannabinoids were tested alone and in various ratioed combinations in media containing final concentrations of 10% and 1% foetal bovine serum at 72 h for the breast and prostate cancer lines and 1% foetal bovine serum for the liver cancer line HepG2.
Each tumour cell line was maintained in vitro in RPMI 1640+10% heat inactivated FBS and 2 mM L-glutamine (growth media) at 37° C. in 5% CO2 and humidified conditions. The cells were harvested, washed, re-suspended into growth medium and counted. The cells were re-suspended into assay media (RPMI 1640+5% heat inactivated FBS+ and 2 mM L-glutamine) at 8×104-2×10^5 cells/ml (dependent upon cell type) and plated into the middle 240 wells of 384 well tissue culture plates (Corning CellBind, black-wall plates) 12.5 μl/well aliquots; 62.5 μl of growth media was aliquoted into the outer wells. There were 4 plates for each cell line. The plates were incubated overnight at 37° C., in 5% humidified CO2.
The phytocannabinoid test compounds were prepared in 100% DMSO vehicle at a stock concentration of 10 mM.
Starting with the 10 mM stock, the compounds were diluted to 125 μM in FBS-free growth media.
These were diluted in FBS-free growth media to 125 μM before serial dilution.
5 volumes of CBD 10 mM stock was added to 1 volume of the other agent (also at 10 mM) and 4 volumes of DMSO. This made a final concentration of 5 mM:1 mM. This was then diluted in FBS-free growth media so the top concentration of CBD would be 125 μM (before serial dilution). Each compound and compound combination stock was serially diluted in FBS-free growth media (containing 1.25% v/v DMSO) from 125 μM to 41.7, 13.89, 4.63, 1.54, 0.514, 0.171, 0.057 and 0.019 μM (1.25× final assay concentrations). Vehicle was prepared at equivalent dilutions in assay media. The top final concentration of compound in the assay was always 100 μM so CBD5:1CBG was 100 μM CBD and 20 μM CBG.
Taxotere SOC was prepared at a stock concentration of 1 mM in 100% DMSO. Taxotere was serially diluted from the stock solution into FBS-free growth media to 12.5 μM, then serially diluted in FBS-free growth media containing 1.25% DMSO to 4.17, 1.39, 0.46, 0.154, 0.051, 0.017, 0.006, 0.002 μM (1.25× final assay concentrations).
This was then serially diluted in FBS-free growth media to 0.417, 0.139, 0.046, 0.0154, 0.0051, 0.0017, 0.0006, 0.0002 μM (1.25× final assay concentrations). This was plated as a positive control for the SKBR3 & BT474 cell lines. 50 μl per well of compound/vehicle dilutions was added to the plates in replicates of 6. Where applicable total volume in the well was made up to 62.5 μl with assay media.
The plates were incubated for 72 h at 37° C. in 5% humidified CO2. To develop the plates, at 72 h, 10 μl of CellTiter-Blue™ reagent was added to each test/blank well. […] Fluorescence was measured using a Flex II Station plate reader (570 nm excitation wavelength, 600 nm emission wavelength, 590 nm cut-off) after 3 h. […]
The raw data values expressed in relative fluorescent units were normalised to the vehicle for each individual plate and any reduction in fluorescence indicated a decrease in viability.
The data were analysed in GraphPad PRISM using a non-linear sigmoidal plot with variable slope (asymmetric five point linear regression) and where possible an IC50 value for each single compound and combination was generated. […]

SMILES | m (shape parameter of dose effect curve)
CCCCCc1cc(O)c(C/C=C(\C)CCC=C(C)C)c(O)c1C(=O)O [CBGA, Cannabigerolic acid] | 2.06
CCCCCc1cc(O)c(C/C=C(\C)CCC=C(C)C)c(O)c1 [CBG, Cannabigerol] | 1.76
CCCc1cc(O)c2c(c1)OC(C)(C)[C@@H]1CCC(C)=C[C@@H]21 [THCV, Tetrahydrocannabivarin] | 1.93
C=C(C)[C@@H]1CCC(C)=C[C@H]1c1c(O)cc(CCCCC)c(C(=O)O)c1O [CBDA, Cannabidiolic acid] | 3.20
C=C(C)[C@@H]1CCC(C)=C[C@H]1c1c(O)cc(CCCCC)cc1O [CBD, Cannabidiol] | 1.93
